# According to PMC10834545:
# The chains behind the UniProt entries cited, without tags or fusion partners.
# UniProt P01106: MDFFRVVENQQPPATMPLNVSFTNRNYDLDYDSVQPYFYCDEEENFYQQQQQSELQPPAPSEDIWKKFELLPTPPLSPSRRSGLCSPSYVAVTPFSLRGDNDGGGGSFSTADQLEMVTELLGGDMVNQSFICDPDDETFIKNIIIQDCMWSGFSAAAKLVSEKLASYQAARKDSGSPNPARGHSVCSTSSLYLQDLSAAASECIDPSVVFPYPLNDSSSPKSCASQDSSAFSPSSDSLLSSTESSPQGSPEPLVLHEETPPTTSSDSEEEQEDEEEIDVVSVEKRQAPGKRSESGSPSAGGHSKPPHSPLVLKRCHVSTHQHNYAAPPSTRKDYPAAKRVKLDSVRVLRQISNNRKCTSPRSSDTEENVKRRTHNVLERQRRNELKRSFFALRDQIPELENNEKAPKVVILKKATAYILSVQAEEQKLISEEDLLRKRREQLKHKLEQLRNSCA
# These are yes or no findings as the source states them, for the method shown. In cells and extracts the contact can be indirect. Here binding means that the protein was enriched with, or labelled near, the bait; the list need not be complete. Tags and fused reporters may be left off the sequences shown.
# Molecular target: T1, Flag-tagged follistatin-like 3 (FSTL3), overexpressed from lentivirus in FSTL3-OE HCT116 cells (UniProt O95633)
# T1 sequence: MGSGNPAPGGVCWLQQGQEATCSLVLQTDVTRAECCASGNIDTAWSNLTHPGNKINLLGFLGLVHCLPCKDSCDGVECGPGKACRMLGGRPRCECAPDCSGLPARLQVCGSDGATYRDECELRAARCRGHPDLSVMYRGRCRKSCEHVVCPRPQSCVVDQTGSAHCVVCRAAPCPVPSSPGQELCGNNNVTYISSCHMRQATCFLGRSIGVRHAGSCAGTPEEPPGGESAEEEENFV
# Experiment: affinity purification with mass spectrometry; anti-Flag immunoprecipitate from lysate of Flag-tagged FSTL3-OE HCT116 cells; 10% gel, silver staining, LC-MS/MS
substance,measurement,value
"MYC proto-oncogene, bHLH transcription factor (c-Myc), endogenous in HCT116 cells (from UniProt P01106 1-454)",binding,binds
